PubChem BioAssay AID1224830, NIAID | 2016

- Test: 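Regulators of TLR4 signalling towards TNF-alpha in macrophage-like cells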 (primary screen)
- Cells: human THP-1 monocytic leukaemia cells, TNF dual-luciferase reporter clone, PMA-differentiated to macrophage-like cells
- Reagents: siRNA pool against human genes, 50 nM
- Timing: LPS for 4 h, given about 3 days after siRNA transfection
- Challenge: bacterial LPS (TLR4 ligand), 10 ng/ml
- Read-out: 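TNF firefly reporter luminescence divided by renilla, normalised to the plate median, then turned into a robust z-score for each replicate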
- Direction: TNF reporter robust z-score: higher = stronger TNF reporter response to LPS
- Call rule: 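a well is active when its z-score exceeds 2.8 or falls below -1.5; control wells carry no call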
The whole screen tested about 18,000 reagents; shown is an unselected part. About 2,900 of all reagents (16%) count as active. 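Calls are made per well; low scores hint the gene aids the LPS response, high scores that it dampens it.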 Entries without a mark were called inactive. Repeated entries: four replicate wells of each siRNA pool.

The first 7 records, ahead of the listing:
KIF21A (kinesin family member 21A) — TNF reporter robust z-score: -0.91
KIF21A (kinesin family member 21A) — TNF reporter robust z-score: -1.13
KIF21A (kinesin family member 21A) — TNF reporter robust z-score: 0
KIF21A (kinesin family member 21A) — TNF reporter robust z-score: 0.32
ROPN1B (rhophilin associated tail protein 1B) — TNF reporter robust z-score: -0.3
ROPN1B (rhophilin associated tail protein 1B) — TNF reporter robust z-score: 0.73
ROPN1B (rhophilin associated tail protein 1B) — TNF reporter robust z-score: 0.24

Results, from the start:
KIF21A (kinesin family member 21A) — TNF reporter robust z-score: -0.91
KIF21A (kinesin family member 21A) — TNF reporter robust z-score: -1.13
KIF21A (kinesin family member 21A) — TNF reporter robust z-score: 0
KIF21A (kinesin family member 21A) — TNF reporter robust z-score: 0.32
ROPN1B (rhophilin associated tail protein 1B) — TNF reporter robust z-score: -0.3
ROPN1B (rhophilin associated tail protein 1B) — TNF reporter robust z-score: 0.73
ROPN1B (rhophilin associated tail protein 1B) — TNF reporter robust z-score: 0.24
ROPN1B (rhophilin associated tail protein 1B) — TNF reporter robust z-score: 1.29
SLC27A6 — TNF reporter robust z-score: 0.61
SLC27A6 — TNF reporter robust z-score: 0.04
SLC27A6 — TNF reporter robust z-score: 0.69
SLC27A6 — TNF reporter robust z-score: 0.72
KCNAB2 — TNF reporter robust z-score: -0.13
KCNAB2 — TNF reporter robust z-score: 1.34
KCNAB2 — TNF reporter robust z-score: 0.7
KCNAB2 — TNF reporter robust z-score: 4.69 (active)
NKAP (NFKB activating protein) — TNF reporter robust z-score: -0.72
NKAP (NFKB activating protein) — TNF reporter robust z-score: -0.82
NKAP (NFKB activating protein) — TNF reporter robust z-score: -0.35
ADISSP (adipose secreted signaling protein) — TNF reporter robust z-score: 1.52
ADISSP (adipose secreted signaling protein) — TNF reporter robust z-score: -0.68
ADISSP (adipose secreted signaling protein) — TNF reporter robust z-score: -0.62
ADISSP (adipose secreted signaling protein) — TNF reporter robust z-score: -0.58
WDR45 (WD repeat domain 45) — TNF reporter robust z-score: 2.14
WDR45 (WD repeat domain 45) — TNF reporter robust z-score: 2.89 (active)
WDR45 (WD repeat domain 45) — TNF reporter robust z-score: 3.06 (active)
WDR45 (WD repeat domain 45) — TNF reporter robust z-score: 3.42 (active)
PDE1C (phosphodiesterase 1C) — TNF reporter robust z-score: 0.08
PDE1C (phosphodiesterase 1C) — TNF reporter robust z-score: 1.03
PDE1C (phosphodiesterase 1C) — TNF reporter robust z-score: 0.28
PDE1C (phosphodiesterase 1C) — TNF reporter robust z-score: 0.91
ESRP2 (epithelial splicing regulatory protein 2) — TNF reporter robust z-score: -0.43
ESRP2 (epithelial splicing regulatory protein 2) — TNF reporter robust z-score: 0.52
ESRP2 (epithelial splicing regulatory protein 2) — TNF reporter robust z-score: -0.29
ESRP2 (epithelial splicing regulatory protein 2) — TNF reporter robust z-score: -0.72
EPO (erythropoietin) — TNF reporter robust z-score: -1.29
EPO (erythropoietin) — TNF reporter robust z-score: -0.53
EPO (erythropoietin) — TNF reporter robust z-score: -1.27
EPO (erythropoietin) — TNF reporter robust z-score: -1.1
P2RX1 (purinergic receptor P2X 1) — TNF reporter robust z-score: 0.87
P2RX1 (purinergic receptor P2X 1) — TNF reporter robust z-score: -0.53
P2RX1 (purinergic receptor P2X 1) — TNF reporter robust z-score: 1.47
HYLS1 (HYLS1 centriolar and ciliogenesis associated) — TNF reporter robust z-score: 0.08
HYLS1 (HYLS1 centriolar and ciliogenesis associated) — TNF reporter robust z-score: 2.79
HYLS1 (HYLS1 centriolar and ciliogenesis associated) — TNF reporter robust z-score: 1.99
HYLS1 (HYLS1 centriolar and ciliogenesis associated) — TNF reporter robust z-score: 1.23
TGFB2 (transforming growth factor beta 2) — TNF reporter robust z-score: -1.15
TGFB2 (transforming growth factor beta 2) — TNF reporter robust z-score: -0.98
TGFB2 (transforming growth factor beta 2) — TNF reporter robust z-score: -0.83
TGFB2 (transforming growth factor beta 2) — TNF reporter robust z-score: 1.44
CARD11 (caspase recruitment domain family member 11) — TNF reporter robust z-score: -1.45
CARD11 (caspase recruitment domain family member 11) — TNF reporter robust z-score: -1.15
CARD11 (caspase recruitment domain family member 11) — TNF reporter robust z-score: -1.28
CARD11 (caspase recruitment domain family member 11) — TNF reporter robust z-score: -0.56
RTL9 (retrotransposon Gag like 9) — TNF reporter robust z-score: -0.94
RTL9 (retrotransposon Gag like 9) — TNF reporter robust z-score: -0.65
RTL9 (retrotransposon Gag like 9) — TNF reporter robust z-score: -0.27
RTL9 (retrotransposon Gag like 9) — TNF reporter robust z-score: -0.93
ZDHHC17 (zDHHC palmitoyltransferase 17) — TNF reporter robust z-score: -1.53 (active)
ZDHHC17 (zDHHC palmitoyltransferase 17) — TNF reporter robust z-score: -0.81
ZDHHC17 (zDHHC palmitoyltransferase 17) — TNF reporter robust z-score: -0.95
ZDHHC17 (zDHHC palmitoyltransferase 17) — TNF reporter robust z-score: -0.86
